Assay results: doi:10.64898/2025.12.14.694184 (bioRxiv, 2025)
These are yes or no findings as the source states them, for the method shown. For part of these data: In cells and extracts the contact can be indirect. Some binding calls cover weakened binding; strength is not graded here. For part of these data: Tags and fused reporters may be left off the sequences shown.

The chains behind the UniProt entries cited, without tags or fusion partners. Where a name states a change or a piece, a line headed by the entry shows the natural chain unless it says otherwise. A line that says so, or that is headed by a name, gives the form on record, which may keep a tag or linker. Residues count along the entry.
ectopically expressed TorsinA (mouse liver) (O14656, residues 21-332): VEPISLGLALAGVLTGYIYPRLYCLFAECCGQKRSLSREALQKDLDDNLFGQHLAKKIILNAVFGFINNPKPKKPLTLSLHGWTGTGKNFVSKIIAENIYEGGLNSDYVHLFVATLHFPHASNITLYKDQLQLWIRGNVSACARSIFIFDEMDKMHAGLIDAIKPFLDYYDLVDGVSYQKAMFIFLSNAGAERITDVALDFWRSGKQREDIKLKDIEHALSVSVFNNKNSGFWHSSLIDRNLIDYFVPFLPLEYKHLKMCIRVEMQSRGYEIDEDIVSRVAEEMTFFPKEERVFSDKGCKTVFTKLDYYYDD
TorsinA-G251D-StrepTagII-FLAG-StrepTagII (O14656, form named): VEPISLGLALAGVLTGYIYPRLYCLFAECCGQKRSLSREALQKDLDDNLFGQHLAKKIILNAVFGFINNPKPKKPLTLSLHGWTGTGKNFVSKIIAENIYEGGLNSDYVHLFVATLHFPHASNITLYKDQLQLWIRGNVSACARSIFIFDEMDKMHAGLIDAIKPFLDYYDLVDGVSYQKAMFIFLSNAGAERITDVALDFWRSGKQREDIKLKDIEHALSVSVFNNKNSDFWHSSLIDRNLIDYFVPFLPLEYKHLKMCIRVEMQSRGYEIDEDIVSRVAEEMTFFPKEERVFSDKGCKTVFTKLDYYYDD

What was measured:
[1] = biological target: TorsinA-G251D-StrepTagII-FLAG-StrepTagII (human) (UniProt O14656); assay: native gel or EMSA
[2] = biological target: T1, CLCC1-FL (full-length), AAV-TBG-CLCC1-FL in Huh7 cells (mouse) (UniProt Q99LI2); assay: co-IP
T1 sequence: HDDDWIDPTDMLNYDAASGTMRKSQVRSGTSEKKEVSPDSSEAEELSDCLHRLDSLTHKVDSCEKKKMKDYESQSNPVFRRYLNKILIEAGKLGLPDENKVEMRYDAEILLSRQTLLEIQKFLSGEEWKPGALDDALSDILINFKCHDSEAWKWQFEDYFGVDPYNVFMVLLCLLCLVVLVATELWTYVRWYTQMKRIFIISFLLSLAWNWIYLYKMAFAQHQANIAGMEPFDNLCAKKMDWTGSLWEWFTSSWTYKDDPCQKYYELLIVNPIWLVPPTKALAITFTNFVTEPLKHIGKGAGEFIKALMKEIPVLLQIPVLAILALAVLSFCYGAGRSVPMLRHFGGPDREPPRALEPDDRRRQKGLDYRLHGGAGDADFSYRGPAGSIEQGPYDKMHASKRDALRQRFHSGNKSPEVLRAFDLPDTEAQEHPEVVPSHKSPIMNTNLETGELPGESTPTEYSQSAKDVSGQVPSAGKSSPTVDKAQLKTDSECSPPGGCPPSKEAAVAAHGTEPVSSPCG

[3] = biological target: T2, endogenous CLCC1 (mouse liver) (mouse (endogenous in liver)) (UniProt Q99LI2); assay: native gel or EMSA
T2 sequence: T1 sequence

[4] = biological target: ectopically expressed TorsinA (mouse liver) (UniProt O14656); assay: co-IP
[5] = biological target: T3, mCLCC1-StrepTagII-FLAG-StrepTagII (mouse) (UniProt Q99LI2); assay: native gel or EMSA
T3 sequence: T1 sequence

[6] = biological target: T3, mCLCC1-StrepTagII-FLAG-StrepTagII (mouse); assay: co-IP
[7] = biological target: T2, endogenous CLCC1 (mouse liver) (mouse (endogenous in liver)); assay: co-IP

## TorsinA-G251D-StrepTagII-FLAG-StrepTagII (from UniProt O14656 21-332) (enzyme)
[1]
  binding: no binding

## TorsinA (AAV-TBG-TorsinA, in Huh7 cells) (from UniProt O14656 21-332)
[2]
  binding: binds

B1: endogenous CLCC1 (mouse liver) (protein, UniProt Q99LI2 19-539)
chain: T1 sequence
[3]
  binding: binds
[4]
  binding: binds

B2: mCLCC1-StrepTagII-FLAG-StrepTagII (protein, UniProt Q99LI2 19-539)
chain: T1 sequence
[5]
  binding: binds

B3: TorsinA (endogenous, mouse liver) (protein, UniProt Q9ER39 21-333)
chain: VEPISLSLALAGVLTTYISYPRLYCLFAECCGQMRSLSREALQKDLDNKLFGQHLAKKVILNAVSGFLSNPKPKKPLTLSLHGWTGTGKNFASKIIAENIYEGGLNSDYVHLFVATLHFPHASNITQYKDQLQMWIRGNVSACARSIFIFDEMDKMHAGLIDAIKPFLDYYDVVDEVSYQKAIFIFLSNAGAERITDVALDFWKSGKQREEIKLRDMEPALAVSVFNNKNSGFWHSSLIDRNLIDYFVPFLPLEYKHLKMCIRVEMQSRGYEVDEDIISKVAEEMTFFPKEEKVFSDKGCKTVFTKLDYYLDD
[6]
  binding: binds
[7]
  binding: binds

B4: TorsinB (endogenous, mouse liver) (protein, UniProt Q9ER41 25-336)
chain: FEPVSVGIAIGAVSALTGYLSYTDFYCRFTECCHEERPLNTSALKLDLEEKLFGQHLATEVILKALTGFRNNKNSKKPLTLSLHGWAGTGKNFISQIVAENLYPKGLKSNFVHLFVSTLHFPHEQKIKVYQDQLQKWIRGNVSACGSSVFIFDEMDKLHPGIIDAIKPFLDYYEQVDGISYRRAIFIFLSNAGGDLITKTALDFWRAGRKREEIQLKDLEPVLSVGVFNNKHSGLWHSGLIDKNLIDYFIPFLPLEYKHVKMCVRAEMRARGAAVDEDVVTSVADEMTFFPKDEKIYSDKGCKTVQSRLDFH
[6]
  binding: binds
[7]
  binding: binds
